Earlier results, collected in patent publication US7795220B2, “Conformationally constrained parathyroid hormones with alpha-helix stabilizers” (The General Hospital Corporation, priority 2003, dated 2010).
Some results were stated once for a whole list of compounds, not compound by compound.

Sequences of proteins named here, by UniProt entry; tags and fusion partners are left off. A change or cut given only in a name is not applied to a line headed by its entry.
UniProt P01270: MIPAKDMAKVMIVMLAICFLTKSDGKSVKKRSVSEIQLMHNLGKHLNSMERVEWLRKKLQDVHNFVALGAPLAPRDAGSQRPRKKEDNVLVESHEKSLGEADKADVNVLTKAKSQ

Experiments:
P1R [1] = target: T1, P1R (Homo sapiens, UniProt Q03431); settings: literature; read-out: binding affinity (Kd); cited from earlier work
T1 sequence (Q03431 27-593): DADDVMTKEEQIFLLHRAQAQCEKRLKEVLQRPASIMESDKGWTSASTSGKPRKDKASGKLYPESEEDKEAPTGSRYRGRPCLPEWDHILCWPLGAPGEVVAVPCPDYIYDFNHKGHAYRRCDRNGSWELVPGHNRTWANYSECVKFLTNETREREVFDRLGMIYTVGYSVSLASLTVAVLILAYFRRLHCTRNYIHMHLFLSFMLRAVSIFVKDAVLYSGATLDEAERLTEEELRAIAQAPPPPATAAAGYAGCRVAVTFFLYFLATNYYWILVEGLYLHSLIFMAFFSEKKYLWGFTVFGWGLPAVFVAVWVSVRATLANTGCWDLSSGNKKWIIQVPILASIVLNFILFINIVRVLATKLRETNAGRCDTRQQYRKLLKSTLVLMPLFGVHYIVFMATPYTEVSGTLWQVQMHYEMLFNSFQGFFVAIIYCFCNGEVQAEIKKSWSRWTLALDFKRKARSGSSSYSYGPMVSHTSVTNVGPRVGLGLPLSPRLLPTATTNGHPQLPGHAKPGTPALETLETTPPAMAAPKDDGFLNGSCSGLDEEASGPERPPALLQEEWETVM

P1R [2] = target: T1, P1R; settings: literature; read-out: cAMP-signaling potency (EC50); cited from earlier work

## PTH(1-11): short N-terminal fragment of PTH (SVSEIQLMHNL; Parathyroid hormone; UniProt P01270 32-42, looked up, fragment)
P1R [1]
  Kd: > 100 µM
P1R [2]
  EC50: ≥ 100 µM

## PTH(1-14): Ser-V-Ser-E-I-Q-L-M-H-N-Leu-G-K-H (SEQ. ID. NO. 26), native N-terminal PTH fragment (SVSEIQLMHNLGKH; C-terminal amide; MOD_RES (14)..(14) AMIDATION; listed as Homo sapiens)
P1R [1]
  Kd: > 100 µM
P1R [2]
  EC50: ≥ 100 µM
